Results as given in patent US20190016746A1, “AMINOGLYCOSIDE DERIVATIVES AND USES THEREOF IN TREATING GENETIC DISORDERS” (Eloxx Pharmaceuticals Ltd., priority 2016, published 2019).
At least one compound was matched to its structure with a doubt left.

What was measured:
[1] = biological target: eukaryotic cytoplasmic ribosome; test: Eukaryotic in vitro translation inhibition, TNT T7 Quick Coupled Transcription/Translation System with luciferase plasmid; format: biochemical; conditions: Table 2; sulfate salts, concentrations refer to free amine form; read-out: Translation Inhibition IC50^Euk
Procedure: (§1) Prokaryotic in vitro translation inhibition by the different aminoglycosides was quantified in coupled transcription/translation assays by using E. coli S30 extract for circular DNA with the pBESTluc plasmid (Promega), according to the manufacturer's protocol. Translation reactions (25 μL) that contained variable concentrations of the tested aminoglycoside were incubated at 37° C. for 60 minutes, cooled on ice for 5 minutes, and diluted with a dilution reagent (tris-phosphate buffer (25 mM, pH 7.8), DTT (2 mM), 1,2-diaminocyclohexanetetraacetate (2 mM), glycerol (10%), Triton X-100 (1%) and BSA (1 mg mL-1)) into 96-well plates. Eukaryotic in vitro translation inhibition was quantified by use of TNT® T7 Quick Coupled Transcription/Translation System with a luciferase T7 control DNA plasmid (Promega), according to the manufacturer protocol. […] In both prokaryotic and eukaryotic systems the luminescence was measured immediately after the addition of the Luciferase Assay Reagent (50 μL; Promega), and the light emission was recorded with a FLx800 Fluorescence Microplate Reader (Biotek). […]
(§2) In all biological tests, all AGs were in their sulfate salt forms, and the concentrations refer to the free amine form of each AG. […] Minimal inhibitory concentration (MIC) values were determined by using the double-microdilution method.

[2] = tested on: prokaryotic ribosome (E. coli S30 extract); test: Prokaryotic in vitro translation inhibition, E. coli S30 extract with pBESTluc plasmid; format: biochemical; conditions: Table 2; sulfate salts, concentrations refer to free amine form; read-out: Translation Inhibition IC50^Pro
Procedure: as §1, §2

With `CN[C@@H]1[C@@H](O)[C@@H](O[C@@H]2[C@@H](O)[C@H](O[C@H]3O[C@H]([C@@H](C)O)[C@@H](O)[C@H](O)[C@H]3N)[C@@H](N)C[C@H]2N)OC[C@]1(C)O` [Compound G418, geneticin, reference compound] the IC50 [1] was 2 ± 3 µM and the IC50 [2] was 0.01 µM.
